These results are taken from paper PMC1472690.

Amino acid sequences for entries named in this document (tags omitted).
UniProt Q04206, whole entry: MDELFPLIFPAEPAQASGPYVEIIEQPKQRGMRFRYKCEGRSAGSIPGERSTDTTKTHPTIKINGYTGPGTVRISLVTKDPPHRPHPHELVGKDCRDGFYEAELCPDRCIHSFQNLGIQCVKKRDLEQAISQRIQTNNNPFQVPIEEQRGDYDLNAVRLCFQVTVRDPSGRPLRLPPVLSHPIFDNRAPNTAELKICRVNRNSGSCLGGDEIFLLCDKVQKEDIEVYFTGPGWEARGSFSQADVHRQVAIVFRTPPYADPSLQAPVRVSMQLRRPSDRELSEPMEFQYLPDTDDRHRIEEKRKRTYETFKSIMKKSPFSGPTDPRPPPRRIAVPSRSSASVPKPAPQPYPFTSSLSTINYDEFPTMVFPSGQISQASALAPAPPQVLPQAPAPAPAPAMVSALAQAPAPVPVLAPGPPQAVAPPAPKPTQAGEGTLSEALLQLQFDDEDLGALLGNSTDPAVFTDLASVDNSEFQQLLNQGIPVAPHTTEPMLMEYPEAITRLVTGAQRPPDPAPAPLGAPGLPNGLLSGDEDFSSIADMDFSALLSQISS

Construct, isoform or probe ends are uncertain for at least one entry. Where cells or extracts were used, other partners may take part. For some assays here: Weaker means in comparison with the reference protein, sequence or condition of that experiment. For some assays here: Where a protein sequence is shown, tags need not be part of it.

For one data set, the target named is T1, NF-kB p50 (Homo sapiens) (UniProt P19838).
T1 sequence (looked up, limits assumed): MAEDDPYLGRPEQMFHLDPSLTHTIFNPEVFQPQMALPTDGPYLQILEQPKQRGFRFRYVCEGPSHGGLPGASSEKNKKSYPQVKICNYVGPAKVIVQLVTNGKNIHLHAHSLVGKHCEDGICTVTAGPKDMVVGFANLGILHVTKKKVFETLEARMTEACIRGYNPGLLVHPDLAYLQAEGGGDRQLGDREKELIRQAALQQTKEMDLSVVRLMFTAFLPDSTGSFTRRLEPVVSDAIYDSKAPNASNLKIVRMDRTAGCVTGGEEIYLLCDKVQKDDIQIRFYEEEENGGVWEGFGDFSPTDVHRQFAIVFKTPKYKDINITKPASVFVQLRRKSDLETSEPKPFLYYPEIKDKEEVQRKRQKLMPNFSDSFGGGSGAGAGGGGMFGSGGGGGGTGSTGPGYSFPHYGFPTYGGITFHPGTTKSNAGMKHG
Briefly: EMSA supershift. The conditions noted are these: PBMC nuclear extract, glucan phosphate 1 h, anti-p50, lesser degree than p65; EMSA with PBMC nuclear extracts and 32P-labelled ds oligos; protein in an extract; label: 5'-32P.

For another data set, the target named is NF-kB p65 (Homo sapiens) (UniProt Q04206). As to the kind of experiment: EMSA supershift. The conditions noted are these: PBMC nuclear extract, glucan phosphate 1 h, anti-p65, predominant; EMSA with PBMC nuclear extracts and 32P-labelled ds oligos; protein in an extract; label: 5'-32P.

With “ATCGTGGAATTTCCTCTGA (double strand) [IL-8kBcS (NFkB consensus, IL-8 promoter)]”, the values for the binding result in the data set with NF-kB p50 (Homo sapiens) and in the data set with NF-kB p65 (Homo sapiens) were “binds more weakly” and “binds”, respectively.
